Reference: patent publication US5436273A, “Psychoactive propargylamine derivatives used in the treatment of anxiety, psychotic states or aggression” (Lowchol Scientific, Inc., priority 1993, dated 1995)

Experiment: Rotarod neurotoxicity test in mice
Settings: mouse, in vivo

## CN1C(=O)CN=C(c2ccccc2)c2cc(Cl)ccc21 [Diazepam]
ip
  TD50 at 0.5 h: 6 mg/kg
po
  TD50: 13 mg/kg
